Test results published in patent US7736677B2 (Metaproteomics, LLC, priority 2001, dated 2010).
At least one compound was matched to its structure with a doubt left.

System: NF-κB
Assay: NF-κB DNA binding of nuclear extracts (TransAM) from LPS-stimulated RAW 264.7 cells
Format: cell-based, murine
Conditions: LPS 4 hr; MgRIAA 55 and 14 μg/ml, parthenolide 80 μM, LY294002 25 μM

O=c1cc(N2CCOCC2)oc2c(-c3ccccc3)cccc12 [LY294002]
NF-κB DNA binding: modest decrease
